Experimental data: article PMC8225859
Read-outs that look alike come from different tables or passages of the source. These are yes or no findings as the source states them, for the method shown. In cells and extracts the contact can be indirect. Here binding means that the protein was enriched with, or labelled near, the bait; the list need not be complete.

Protein sequences, listed by entry. Tags and fused reporters are not part of them.
UniProt Q71LX4: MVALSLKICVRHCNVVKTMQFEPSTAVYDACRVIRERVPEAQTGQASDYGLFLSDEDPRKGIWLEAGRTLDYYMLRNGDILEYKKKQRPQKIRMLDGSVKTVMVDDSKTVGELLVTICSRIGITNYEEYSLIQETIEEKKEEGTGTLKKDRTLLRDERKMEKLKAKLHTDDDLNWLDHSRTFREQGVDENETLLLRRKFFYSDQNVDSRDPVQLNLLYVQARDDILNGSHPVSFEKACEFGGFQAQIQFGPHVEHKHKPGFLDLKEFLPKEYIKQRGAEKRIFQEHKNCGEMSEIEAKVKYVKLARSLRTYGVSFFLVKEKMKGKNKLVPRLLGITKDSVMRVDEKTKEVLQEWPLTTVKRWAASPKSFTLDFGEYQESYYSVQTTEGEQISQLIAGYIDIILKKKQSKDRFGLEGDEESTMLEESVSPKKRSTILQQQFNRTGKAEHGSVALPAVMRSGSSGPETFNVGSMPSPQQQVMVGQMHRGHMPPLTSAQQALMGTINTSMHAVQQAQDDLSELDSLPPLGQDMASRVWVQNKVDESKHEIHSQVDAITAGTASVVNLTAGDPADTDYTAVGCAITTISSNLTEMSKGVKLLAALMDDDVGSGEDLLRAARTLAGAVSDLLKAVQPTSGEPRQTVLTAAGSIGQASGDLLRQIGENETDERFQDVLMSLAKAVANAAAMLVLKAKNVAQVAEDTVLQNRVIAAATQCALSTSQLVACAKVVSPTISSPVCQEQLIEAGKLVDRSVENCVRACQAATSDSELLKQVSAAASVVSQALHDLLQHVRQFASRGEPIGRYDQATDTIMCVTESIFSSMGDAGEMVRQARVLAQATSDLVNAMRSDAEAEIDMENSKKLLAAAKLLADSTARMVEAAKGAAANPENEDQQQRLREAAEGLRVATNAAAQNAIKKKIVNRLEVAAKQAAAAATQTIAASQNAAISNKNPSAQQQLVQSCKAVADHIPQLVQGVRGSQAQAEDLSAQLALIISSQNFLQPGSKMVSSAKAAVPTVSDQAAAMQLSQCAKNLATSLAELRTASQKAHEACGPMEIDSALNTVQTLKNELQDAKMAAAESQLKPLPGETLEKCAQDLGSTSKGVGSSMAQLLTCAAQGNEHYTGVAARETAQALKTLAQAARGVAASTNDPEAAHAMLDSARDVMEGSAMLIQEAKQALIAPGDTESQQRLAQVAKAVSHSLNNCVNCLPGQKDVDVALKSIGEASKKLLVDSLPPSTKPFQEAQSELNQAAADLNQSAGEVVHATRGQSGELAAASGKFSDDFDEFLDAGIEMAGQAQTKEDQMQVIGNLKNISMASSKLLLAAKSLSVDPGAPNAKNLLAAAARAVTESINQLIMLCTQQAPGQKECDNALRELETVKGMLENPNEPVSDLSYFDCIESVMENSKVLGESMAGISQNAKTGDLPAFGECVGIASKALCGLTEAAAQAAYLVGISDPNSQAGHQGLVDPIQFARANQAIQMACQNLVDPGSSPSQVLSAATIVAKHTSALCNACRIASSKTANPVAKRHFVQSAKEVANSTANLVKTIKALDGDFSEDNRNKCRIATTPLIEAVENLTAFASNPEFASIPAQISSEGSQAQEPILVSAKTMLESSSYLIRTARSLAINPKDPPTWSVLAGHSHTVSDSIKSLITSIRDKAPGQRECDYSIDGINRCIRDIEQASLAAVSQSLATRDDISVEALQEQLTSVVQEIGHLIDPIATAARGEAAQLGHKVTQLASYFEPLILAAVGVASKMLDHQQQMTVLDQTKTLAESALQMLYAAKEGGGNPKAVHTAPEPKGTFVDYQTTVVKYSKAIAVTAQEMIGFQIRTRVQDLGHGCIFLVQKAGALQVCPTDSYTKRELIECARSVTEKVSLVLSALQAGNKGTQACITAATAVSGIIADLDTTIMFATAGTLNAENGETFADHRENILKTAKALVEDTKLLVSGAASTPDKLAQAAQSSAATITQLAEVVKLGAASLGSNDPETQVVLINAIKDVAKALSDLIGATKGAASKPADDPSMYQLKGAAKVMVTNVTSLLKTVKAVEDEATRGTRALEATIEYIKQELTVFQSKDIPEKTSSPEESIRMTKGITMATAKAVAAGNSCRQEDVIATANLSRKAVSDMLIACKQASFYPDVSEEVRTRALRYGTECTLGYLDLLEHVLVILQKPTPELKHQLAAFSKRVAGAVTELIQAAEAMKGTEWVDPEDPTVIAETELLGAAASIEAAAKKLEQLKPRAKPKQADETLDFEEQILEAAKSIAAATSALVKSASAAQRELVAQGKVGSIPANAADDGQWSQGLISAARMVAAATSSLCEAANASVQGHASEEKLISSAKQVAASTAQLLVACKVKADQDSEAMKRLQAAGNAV
UniProt P26039: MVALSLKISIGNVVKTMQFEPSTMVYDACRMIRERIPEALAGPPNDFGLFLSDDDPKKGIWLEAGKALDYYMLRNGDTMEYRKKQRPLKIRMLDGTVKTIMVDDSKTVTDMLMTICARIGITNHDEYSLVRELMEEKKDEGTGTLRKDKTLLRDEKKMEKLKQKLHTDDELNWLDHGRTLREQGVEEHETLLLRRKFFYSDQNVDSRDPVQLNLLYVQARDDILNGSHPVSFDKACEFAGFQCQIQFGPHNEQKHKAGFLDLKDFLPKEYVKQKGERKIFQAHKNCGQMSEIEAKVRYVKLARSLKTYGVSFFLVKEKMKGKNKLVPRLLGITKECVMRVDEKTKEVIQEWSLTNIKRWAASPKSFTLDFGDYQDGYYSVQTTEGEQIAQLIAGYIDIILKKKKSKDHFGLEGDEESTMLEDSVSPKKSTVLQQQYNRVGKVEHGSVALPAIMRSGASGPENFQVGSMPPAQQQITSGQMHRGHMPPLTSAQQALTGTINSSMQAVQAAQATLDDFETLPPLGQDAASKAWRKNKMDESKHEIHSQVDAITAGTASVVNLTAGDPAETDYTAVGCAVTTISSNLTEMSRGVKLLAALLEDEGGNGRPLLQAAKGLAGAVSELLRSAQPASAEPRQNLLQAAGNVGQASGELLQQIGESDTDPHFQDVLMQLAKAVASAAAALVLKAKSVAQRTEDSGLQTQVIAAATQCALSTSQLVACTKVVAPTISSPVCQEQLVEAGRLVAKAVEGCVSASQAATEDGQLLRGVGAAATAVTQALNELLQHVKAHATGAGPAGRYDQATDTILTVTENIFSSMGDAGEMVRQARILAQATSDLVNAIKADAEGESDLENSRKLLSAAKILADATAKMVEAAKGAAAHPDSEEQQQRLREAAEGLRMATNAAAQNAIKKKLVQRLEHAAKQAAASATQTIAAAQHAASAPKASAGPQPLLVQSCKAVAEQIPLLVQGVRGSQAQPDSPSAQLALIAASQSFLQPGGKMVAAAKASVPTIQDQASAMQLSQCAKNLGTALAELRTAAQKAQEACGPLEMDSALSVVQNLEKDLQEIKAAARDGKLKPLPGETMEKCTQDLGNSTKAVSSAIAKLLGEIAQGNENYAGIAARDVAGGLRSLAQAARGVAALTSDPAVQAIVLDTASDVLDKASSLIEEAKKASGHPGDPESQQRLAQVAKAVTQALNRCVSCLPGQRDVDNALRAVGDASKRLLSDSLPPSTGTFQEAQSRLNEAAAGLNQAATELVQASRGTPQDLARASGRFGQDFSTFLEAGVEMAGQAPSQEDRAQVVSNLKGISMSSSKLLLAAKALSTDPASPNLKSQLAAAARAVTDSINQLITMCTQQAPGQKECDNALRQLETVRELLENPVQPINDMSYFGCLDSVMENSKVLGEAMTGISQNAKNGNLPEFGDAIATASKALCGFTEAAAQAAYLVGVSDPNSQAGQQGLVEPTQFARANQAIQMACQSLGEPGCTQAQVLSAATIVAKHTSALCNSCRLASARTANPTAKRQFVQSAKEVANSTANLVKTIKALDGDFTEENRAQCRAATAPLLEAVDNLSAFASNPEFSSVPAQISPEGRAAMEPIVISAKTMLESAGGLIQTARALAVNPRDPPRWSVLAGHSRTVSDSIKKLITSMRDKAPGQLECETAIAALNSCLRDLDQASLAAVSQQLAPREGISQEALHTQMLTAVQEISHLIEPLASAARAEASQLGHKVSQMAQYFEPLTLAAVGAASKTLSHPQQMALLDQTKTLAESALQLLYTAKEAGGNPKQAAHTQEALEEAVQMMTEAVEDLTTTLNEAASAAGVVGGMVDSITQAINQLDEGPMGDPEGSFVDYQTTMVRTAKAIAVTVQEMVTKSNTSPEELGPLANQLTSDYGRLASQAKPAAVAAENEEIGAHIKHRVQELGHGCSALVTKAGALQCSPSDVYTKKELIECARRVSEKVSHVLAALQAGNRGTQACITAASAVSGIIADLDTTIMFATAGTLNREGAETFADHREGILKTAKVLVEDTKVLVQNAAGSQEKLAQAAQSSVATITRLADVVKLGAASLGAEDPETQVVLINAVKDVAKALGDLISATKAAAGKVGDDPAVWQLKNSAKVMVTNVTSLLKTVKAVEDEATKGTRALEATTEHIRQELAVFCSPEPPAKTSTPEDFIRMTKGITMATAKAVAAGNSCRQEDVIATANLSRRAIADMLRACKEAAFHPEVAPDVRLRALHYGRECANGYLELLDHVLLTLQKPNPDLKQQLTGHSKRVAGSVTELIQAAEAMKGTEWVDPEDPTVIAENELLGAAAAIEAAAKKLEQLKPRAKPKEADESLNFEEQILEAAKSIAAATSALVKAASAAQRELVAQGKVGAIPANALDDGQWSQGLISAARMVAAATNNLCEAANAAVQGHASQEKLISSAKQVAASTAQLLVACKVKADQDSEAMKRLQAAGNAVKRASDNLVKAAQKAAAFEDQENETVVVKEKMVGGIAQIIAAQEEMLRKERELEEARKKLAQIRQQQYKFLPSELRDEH

T1: Apolipoprotein A4 (APOA4) in gonadal fat tissue of WT mice injected with recombinant mouse APOA4 (mouse) (UniProt P06728)
T1 sequence: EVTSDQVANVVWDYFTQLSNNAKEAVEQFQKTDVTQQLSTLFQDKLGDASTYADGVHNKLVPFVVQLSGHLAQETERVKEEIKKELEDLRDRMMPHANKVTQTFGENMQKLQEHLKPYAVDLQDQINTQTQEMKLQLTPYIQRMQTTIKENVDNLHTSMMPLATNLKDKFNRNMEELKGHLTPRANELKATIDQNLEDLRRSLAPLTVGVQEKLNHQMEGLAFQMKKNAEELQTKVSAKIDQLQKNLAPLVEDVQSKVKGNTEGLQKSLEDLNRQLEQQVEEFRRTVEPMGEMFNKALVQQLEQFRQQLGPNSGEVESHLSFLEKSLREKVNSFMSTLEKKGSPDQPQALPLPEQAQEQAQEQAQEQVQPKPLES


Key:
[1] = target: T1, Apolipoprotein A4 (APOA4) in gonadal fat tissue of WT mice injected with recombinant mouse APOA4 (mouse); experiment: affinity purification with mass spectrometry; goat anti-mouse APOA4 (goat IgG isotype control in parallel) conjugated to agarose beads; 10 mg pooled gonadal fat tissue lysate of male and female WT mice fasted 5 h and injected i.p. with r-m-APOA4 (2.5 ug/g) 2 h before; overnight at 4 °C; eluate resolved by SDS-PAGE, in-gel trypsin digestion, LC-MS/MS
[2] = target: T1, Apolipoprotein A4 (APOA4) in gonadal fat tissue of WT mice injected with recombinant mouse APOA4 (mouse); experiment: as above; remark: listed apart in the source

binding [1] | binding [2] | Molecule
binds |  | Talin 2 (TLN2) (from UniProt Q71LX4 1-2375)
binds |  | Talin 1 (TLN1) (from UniProt P26039 1-2541)
 | binds | Malonyl-CoA decarboxylase (MLYCD) (enzyme, UniProt Q99J39 39-492) MDELLRRAVPPTPAYELREKTPAPAEGQCADFVSFYGGLAEASQRAELLGRLAQGFGVDHGQVAEQSAGVLQLRQQAREAAVLLQAEDRLRYALVPRYRGLFHHISKLDGGVRFLVQLRADLLEAQALKLVEGPHVREMNGVLKSMLSEWFSSGFLNLERVTWHSPCEVLQKISECEAVHPVKNWMDMKRRVGPYRRCYFFSHCSTPGEPLVVLHVALTGDISNNIQGIVKECPPTETEERNRIAAAIFYSISLTQQGLQGVELGTFLIKRVVKELQKEFPQLGAFSSLSPIPGFTKWLLGLLNVQGKEHGRNELFTDSECQEISAVTGNPVHESLKGFLSSGEWVKSEKLTQALQGPLMRLCAWYLYGEKHRGYALNPVANFHLQNGAVMWRINWMADSSLKGLTSSCGLMVNYRYYLEETGPNSISYLGSKNIKASEQILSLVAQFQNNSKL
 | binds | Proline-serine-threonine phosphatase interacting protein 2 (PSTPIP2) (protein, UniProt Q99M15 1-334) MTGSLFKGNFWSTDILSTIGYDSIIQHLNNGRKNCKEFEDFLKERASIEEKYGKDLLNLSRKKPCGQSEINTLKRALEVFKQQVDNVAQCHIQLAQTLREEARKMEEFREKQKLQRKKTETIMDAAHKQRNAQFKKAMDAKKNYEQKCRDKDEAEQAVHRSANVANQRQQEKLFVKLATSKTAVEDSDKAYMLHINMLEKVREDWQSEHIKACEVFEAQECERINFFRNALWLHLNQLSQQCVANDEMYEQVRKSLETCSIEKDIQYFVNQRKTGQTPPAPIMYENFYSPQRNAAPPGKTTGPNPARRGPLPVPKRIPDDPDYSVVEDYSLLYQ

Second part, the molecule before the results:

Molecule | binding [1] | binding [2]
Low-density lipoprotein receptor-related protein 1 (LRP1) (mouse (endogenous in gonadal fat tissue)) | binds | 
Lipin1 (LPIN1) (protein, UniProt Q91ZP3 1-924) MNYVGQLAGQVFVTVKELYKGLNPATLSGCIDIIVIRQPNGSLQCSPFHVRFGKMGVLRSREKVVDIEINGESVDLHMKLGDNGEAFFVQETDNDQEIIPMYLATSPILSEGAARMESQLKRNSVDRIRCLDPTTAAQGLPPSDTPSTGSLGKKRRKRRRKAQLDNLKRDDNVNSSEDEDMFPIEMSSDEDTAPMDGSRTLPNDVPPFQDDIPKENFPSISTHPQSASYPSSDREWSPSPSSLVDCQRTPPHLAEGVLSSSCPLQSCHFHASESPSGSRPSTPKSDSELVSKSADRLTPKNNLEMLWLWGELPQAAKSSSPHKMKESSPLGSRKTPDKMNFQAIHSESSDTFSDQSPTMARGLLIHQSKAQTEMQFVNEEDLESLGAAAPPSPVAEELKAPYPNTAQSSSKTDSPSRKKDKRSRHLGADGVYLDDLTDMDPEVAALYFPKNGDPGGLPKQASDNGARSANQSPQSVGGSGIDSGVESTSDSLRDLPSIAISLCGGLSDHREITKDAFLEQAVSYQQFADNPAIIDDPNLVVKVGNKYYNWTTAAPLLLAMQAFQKPLPKATVESIMRDKMPKKGGRWWFSWRGRNATIKEESKPEQCLTGKGHNTGEQPAQLGLATRIKHESSSSDEEHAAAKPSGSSHLSLLSNVSYKKTLRLTSEQLKSLKLKNGPNDVVFSVTTQYQGTCRCEGTIYLWNWDDKVIISDIDGTITRSDTLGHILPTLGKDWTHQGIAKLYHKVSQNGYKFLYCSARAIGMADMTRGYLHWVNERGTVLPQGPLLLSPSSLFSALHREVIEKKPEKFKVQCLTDIKNLFFPNTEPFYAAFGNRPADVYSYKQVGVSLNRIFTVNPKGELVQEHAKTNISSYVRLCEVVDHVFPLLKRSHSCDFPCSDTFSNFTFWREPLPPFENQDMHSASA |  | binds
Glyceronephosphate O-acyltransferase (GNPAT) (enzyme, UniProt P98192 1-678) MDVPSSSSSRFSVGSASPSSVLLYAKDLKKWDEFEDLLEERRHISDFKFAMKCYTPPLYRGITPCKPGDIKSIVLSSEEINYVIKQLSRESLTGVDVLREEASEILEEMSHKLRIGAIRFFAFVLSKIFKQIFSKVCVNEEGIQKLQRAVQEHPVVLLPSHRSYIDFLMLSFILYSYDLPVPVIAAGMDFLGMRVVSELLRMSGAFFMRRTFGGNKLYWAVFSEYVKTMLRCGYAPVEFFLEGTRSRAAKTLTPKFGLLNIVMEPFFKREVFDTYFVPISISYDKILEESLYAYEILGVPKPKESTTGLLKARRILSENFGSIHVYFGDPVSLRSLAAGRLNRNTYNLVPRCIPQKQPEDVQAFVTEVAYKMQLLQIENLALSPWLLVVTILLQNQLSMDFDALVEKTLWLKGVTQVFGGFLLWPDNKLPEEVVQSSILLHSNLASLVKDQVVLKMNSGSSQVVNGLVPEHIALLMCSAYRNQLLNIFARPSLVALALHMTPGLRKEDVFSCFSFLRNVFSDEFIFLPGNTLRDFEEGCYLLCKAEAMQMAGKDIILTDKGTAVLQFLTSLFKPFVESYQLLCRYLLHEEDYFGEKEYLVAARKFTRQLLDQGSSQCYDALSSELQKNALAAFVRLGVVEKKKVDSKYVYYVNGPATSKLEEMLGCKKPIGKPATAKL |  | binds
